# PubChem BioAssay AID248 (DTP/NCI, 2004)
# The list does not hold the whole screen: it gathers tests that were run many times, whatever their T/C, doses with no T/C, and many T/C values between a quarter and a half above the control. Other doses and runs of a compound stand elsewhere. T/C is the treated group as % of the vehicle group. Some doses have a count of surviving animals in place of a T/C: the source holds a T/C of zero for them, seemingly a mark for toxic or unscored doses. Some survivor counts are full or nearly so, which does not show that the dose was tolerated: survival well below the control is almost never listed, so the zero probably covers shortened survival too. Counts of survivors are from the toxicity check (mostly the fifth day) where no day follows; animals may have died later. Schedule codes are those of the source, read here as Q, the interval in days (D) or hours (H), X, the number of doses. Some schedule codes hold Z or #, which are not explained here.
# Tested on: L1210 leukemia ip in BDF1 mice, survival T/C
# Assay: NCI In Vivo Anticancer Drug Screen. Data for tumor model L1210 Leukemia (intraperitoneal) in B6D2F1 (BDF1) mice
# Conditions: T/C endpoint: mean survival time, higher T/C = longer survival
# [1] = dose: 400.0 mg/kg/injection, schedule: Q04DX003 (ip), vehicle: saline with Tween-80
# [2] = dose: 120.0 mg/kg/injection, schedule: Q01DX Z (ip), vehicle: carboxymethylcellulose (CMC)
smiles,measurement,setting,value
COC(=O)c1ccccc1N=NNc1cccc(SC)c1,survivor count,[1],5 of 6
CCN=C(Nc1ccccc1)c1ccc(C(=NCC)Nc2ccccc2)cc1,survivor count,"dose: 15.0 mg/kg/injection, schedule: Q01DX Z (ip), vehicle: carboxymethylcellulose (CMC)",0 of 6
same,survivor count,"dose: 30.0 mg/kg/injection, schedule: Q01DX Z (ip), vehicle: carboxymethylcellulose (CMC)",0 of 6
same,survivor count,"dose: 60.0 mg/kg/injection, schedule: Q01DX Z (ip), vehicle: carboxymethylcellulose (CMC)",0 of 6
same,survivor count,[2],0 of 6
Cc1cc(=O)[nH]c(C(F)(F)F)n1,survivor count,"dose: 44.0 mg/kg/injection, schedule: Q01DX Z (ip), vehicle: methylcellulose (MC)",6 of 6
same,survivor count,"dose: 66.0 mg/kg/injection, schedule: Q01DX Z (ip), vehicle: methylcellulose (MC)",6 of 6
same,survivor count,"dose: 100.0 mg/kg/injection, schedule: Q01DX Z (ip), vehicle: methylcellulose (MC)",6 of 6
CN(C)/C=C1\C(=O)Nc2c1c(=O)n(C)c(=O)n2C,survivor count,"dose: 200.0 mg/kg/injection, schedule: Q01DX009 (ip), vehicle: saline",0 of 3
CC1(C)N=C(N)N=C(N)N1c1ccc2ccccc2c1,survivor count,"dose: 100.0 mg/kg/injection, schedule: Q01DX015 (ip), vehicle: other",0 of 6
same,survivor count,"dose: 200.0 mg/kg/injection, schedule: Q01DX001 (ip), vehicle: other",1 of 4
same,survivor count,"dose: 200.0 mg/kg/injection, schedule: Q01DX015 (ip), vehicle: other",0 of 6
same,survivor count,"dose: 400.0 mg/kg/injection, schedule: Q01DX001 (ip), vehicle: other",0 of 4
Cc1cccc2c(N=Nc3ccccc3[N+](=O)[O-])c(O)[nH]c12,survivor count,"dose: 200.0 mg/kg/injection, schedule: Q01DX001 (ip), vehicle: saline",6 of 6
c1ccc([Si](c2ccccc2)(c2cccs2)c2cccs2)cc1,survivor count,"dose: 400.0 mg/kg/injection, schedule: Q01DX009 (ip), vehicle: saline with Tween-80",6 of 6
CCCC(OC(C)=O)C(Cl)(Cl)Cl (stereo not given),survivor count,"dose: 200.0 mg/kg/injection, schedule: Q01DX009 (ip), vehicle: Klucel (hydroxypropylcellulose) (HPC)",5 of 6
same,survivor count,"dose: 400.0 mg/kg/injection, schedule: Q04DX003 (ip), vehicle: Klucel (hydroxypropylcellulose) (HPC)",1 of 6
NC(=O)c1cc2c(N)[nH]nc2nc1N,survivor count,"dose: 100.0 mg/kg/injection, schedule: Q04DX003 (ip), vehicle: saline with Tween-80",1 of 6
same,survivor count,"dose: 200.0 mg/kg/injection, schedule: Q04DX003 (ip), vehicle: saline with Tween-80",0 of 6
same,survivor count,[1],0 of 6
CCCCCCCCCCCCCCCCNC(=S)N/N=C(/C=C/c1ccccc1)C(=O)O,survivor count,[2],0 of 6
CCOC(=O)COc1ccc(N=NN(C)c2ccccc2)cc1,survivor count,"dose: 375.0 mg/kg/injection, schedule: Q01DX Z (ip), vehicle: carboxymethylcellulose (CMC)",1 of 6
CCC(/C=C1\[Se]c2ccc(C)cc2N1CC)=C\c1[se]c2ccc(C)cc2[n+]1CC,survivor count,"dose: 8.0 mg/kg/injection, schedule: Q01DX001 (ip), vehicle: other",3 of 6
same,survivor count,"dose: 9.5 mg/kg/injection, schedule: Q01DX001 (ip), vehicle: other",0 of 6
same,survivor count,"dose: 19.0 mg/kg/injection, schedule: Q01DX001 (ip), vehicle: other",0 of 6
same,survivor count,"dose: 38.0 mg/kg/injection, schedule: Q01DX001 (ip), vehicle: other",0 of 6
CCCCNC(C)C(=O)c1ccccc1 (stereo not given),survivor count,"dose: 100.0 mg/kg/injection, schedule: Q01DX009 (ip), vehicle: saline",1 of 6
same,survivor count,"dose: 200.0 mg/kg/injection, schedule: Q04DX003 (ip), vehicle: saline",0 of 6
same,survivor count,"dose: 400.0 mg/kg/injection, schedule: Q04DX003 (ip), vehicle: saline",0 of 6
O=S(=O)(O)Sc1ncnc2nc[nH]c12,survivor count,"dose: 500.0 mg/kg/injection, schedule: Q01DX001 (ip), vehicle: water",1 of 6
same,survivor count,"dose: 500.0 mg/kg/injection, schedule: Q01DX009 (ip), vehicle: water",0 of 6
same,survivor count,"dose: 500.0 mg/kg/injection, schedule: Q04DX003 (ip), vehicle: water",2 of 6
same,survivor count,"dose: 1000.0 mg/kg/injection, schedule: Q01DX001 (ip), vehicle: water",2 of 6
same,survivor count,"dose: 1000.0 mg/kg/injection, schedule: Q04DX003 (ip), vehicle: water",0 of 6
same,survivor count,"dose: 2000.0 mg/kg/injection, schedule: Q01DX001 (ip), vehicle: water",0 of 6
